Experimental findings from PubChem BioAssay AID248 (DTP/NCI, 2004) are described below.

This experiment concerns L1210 leukemia ip in BDF1 mice, survival T/C. Kind of experiment: NCI In Vivo Anticancer Drug Screen. Data for tumor model L1210 Leukemia (intraperitoneal) in B6D2F1 (BDF1) mice. As to conditions: T/C endpoint: mean survival time, higher T/C = longer survival.
The mark [1] stands for this setting: dose: 400.0 mg/kg/injection, schedule: Q04DX003 (ip), vehicle: Klucel (hydroxypropylcellulose) (HPC).
Setting [2] is: dose: 400.0 mg/kg/injection, schedule: Q04DX003 (ip), vehicle: water.
Setting [3] is: dose: 400.0 mg/kg/injection, schedule: Q01DX009 (ip), vehicle: saline with Tween-80.
Setting [4] is: dose: 400.0 mg/kg/injection, schedule: Q04DX003 (ip), vehicle: saline with Tween-80.
The mark [5] stands for this setting: dose: 200.0 mg/kg/injection, schedule: Q01DX009 (ip), vehicle: Klucel (hydroxypropylcellulose) (HPC).

SMILES strings stand for the structures. The list shows only some results of the screen, not a fair sample: it is rich in T/C values a quarter to a half above the control, in often repeated tests (any T/C) and in doses without a T/C. Further doses and runs are listed elsewhere. T/C: endpoint of the treated group in % of that of the vehicle group. Some entries give survivors of the animals treated and no T/C: the source holds a T/C of zero for them, seemingly a mark for toxic or unscored doses. Some doses without a T/C left all or most animals alive at the check, yet need not have been tolerated: survival well below the control is almost never listed, so the zero probably covers shortened survival too. Survivors were counted at the toxicity check, usually on the fifth day, unless a day is given; later deaths do not show. Schedules are NCI's codes, taken here to give the interval after Q, in days (D) or hours (H), and the number of doses after X.

In the case of `O=[N+]([O-])c1ccc(F)c(Cl)c1`, the survivor count (dose: 200.0 mg/kg/injection, schedule: Q01DX009 (ip), vehicle: other) is given as 4 of 6 and the survivor count (dose: 400.0 mg/kg/injection, schedule: Q01DX009 (ip), vehicle: other) is reported as 0 of 6.
Turning to `c1cncc(-c2ncnc3c2Cc2ccccc2-3)c1`, under setting [1], the survivor count is listed as 3 of 6.
In the case of `CCCCOC(=O)CNC(=O)c1ccc([N+](=O)[O-])s1`, the survivor count (dose: 200.0 mg/kg/injection, schedule: Q01DX005 (ip), vehicle: saline) was 2 of 4.
For the compound `CN(C(=N)N)c1ccc(C(=O)Oc2ccc([N+](=O)[O-])cc2)cc1`, the survivor count is, setting by setting: (dose: 400.0 mg/kg/injection, schedule: Q01DX009 (ip), vehicle: water) 0 of 6; under setting [2], 2 of 6.
On to `CCN=C(c1ccc(NC(=O)c2ccc(C(=O)Nc3ccc(C(=NCC)N(CC)C(=O)OCC)cc3)cc2)cc1)N(CC)C(=O)OCC`, for which the survivor count is on record as 0 of 6 (dose: 125.0 mg/kg/injection, schedule: Q01DX015 (ip), vehicle: methylcellulose (MC)) and 6 of 6 (dose: 250.0 mg/kg/injection, schedule: Q01DX015 (ip), vehicle: methylcellulose (MC)).
As to `C=CS(=O)(=O)c1ccccc1Cl`, the survivor count under setting [1] is given as 0 of 6.
As for `O=C(COc1ccc(Cl)cc1Cl)Nc1ccc(F)cc1`, the survivor count was 3 of 6 (dose: 200.0 mg/kg/injection, schedule: Q01DX009 (ip), vehicle: saline with Tween-80) and 0 of 6 under setting [3].
Take `CN(C)C(=S)NCc1ccccc1`: the survivor count under setting [3] is listed as 3 of 6.
`CCCCP(=O)(CCCC)CCP(=O)(CCCC)CCCC`: the survivor count under setting [4] was 6 of 6.
As to `CN(Cc1ccc2nc(N)[nH]c(=O)c2c1)c1ccc(C(=O)NC(CCC(=O)O)C(=O)O)cc1` (stereo not given), the survivor count is, setting by setting: (dose: 200.0 mg/kg/injection, schedule: Q01DX009 (ip), vehicle: water) 2 of 6; under setting [2], 0 of 6.
As for `O=C(COc1ccc(Cl)c(Cl)c1)NCc1ccc[n+](Cc2ccc(Cl)cc2S(=O)(=O)F)c1`, under setting [4], the survivor count is 0 of 6.
Take `NCC(=O)c1cccc2ccc[n+]([O-])c12`: the survivor count is, setting by setting: under setting [5], 3 of 6; under setting [1], 0 of 6.
Regarding `Cc1n[n+]([O-])c(C)cc1[N+](=O)[O-]`, the survivor count (dose: 400.0 mg/kg/injection, schedule: Q04DX002 (ip), vehicle: Klucel (hydroxypropylcellulose) (HPC)) is 1 of 3.
As for `O=C1CSc2cc[nH]c21`, the survivor count is, setting by setting: under setting [5], 5 of 6; (dose: 400.0 mg/kg/injection, schedule: Q01DX009 (ip), vehicle: Klucel (hydroxypropylcellulose) (HPC)) 0 of 6.
On to `COc1ccc(Cl)cc1NC(=O)Nc1cc(C)ccc1N=Nc1ccc(C)cc1`, for which the survivor count is 3 of 3 (dose: 100.0 mg/kg/injection, schedule: Q01DX009 (ip), vehicle: saline with Tween-80); 6 of 6 (dose: 100.0 mg/kg/injection, schedule: Q04DX003 (ip), vehicle: saline with Tween-80); 6 of 6 (dose: 200.0 mg/kg/injection, schedule: Q01DX001 (ip), vehicle: saline with Tween-80); 6 of 6 (dose: 200.0 mg/kg/injection, schedule: Q04DX003 (ip), vehicle: saline with Tween-80); 6 of 6 under setting [4].
Regarding `O=[N+]([O-])/C=C/C=C/c1ccco1`, the survivor count (dose: 50.0 mg/kg/injection, schedule: Q04DX002 (ip), vehicle: saline with Tween-80) was 1 of 3; the survivor count (dose: 100.0 mg/kg/injection, schedule: Q04DX002 (ip), vehicle: saline with Tween-80) was 1 of 3; the survivor count (dose: 200.0 mg/kg/injection, schedule: Q04DX002 (ip), vehicle: saline with Tween-80) is given as 1 of 3; the survivor count (dose: 400.0 mg/kg/injection, schedule: Q04DX002 (ip), vehicle: saline with Tween-80) was 0 of 3.
